Values of other authors in paper PMC7226106, “Population Pharmacokinetics/Pharmacodynamics of Dabrafenib Plus Trametinib in Patients with BRAF-Mutated Metastatic Melanoma” (Cancers, 2020).

Test system: BRAF-mutated MM patients
Conditions: cited from earlier work

CC(=O)Nc1cccc(-n2c(=O)n(C3CC3)c(=O)c3c(Nc4ccc(I)cc4F)n(C)c(=O)c(C)c32)c1 [TRA, trametinib]
trough plasma concentration associated with a better clinical efficacy (phase 2 trial, TRA monotherapy vs. CombiDT, not confirmed in phase 3): above 10.6 ng/mL

CC(C)(C)c1nc(-c2cccc(NS(=O)(=O)c3c(F)cccc3F)c2F)c(-c2ccnc(N)n2)s1 [DAB, Dabrafenib]
plasma trough threshold predicting the occurrence of DLT: 48 ng/mL
